Source: patent US20200018743A1, “MINI-CANCERS UTILIZATION FOR PERSONALIZED CANCER DRUG REGIMENS” (THE JOHNS HOPKINS UNIVERSITY, priority 2017, published 2020)
For some assays here: At least one compound was matched to its structure with a doubt left. Some results were stated once for a whole list of compounds, not compound by compound. Starred links: 1 amine or outer side, 2 acyl side, 3 side chain; linkers in the order of their positions; H or OH if unused. Positions of bridges follow the written chain, without caps; N, C: chain ends. Non-standard residues stand in square brackets, D forms with d. Residues, ends and D or L forms follow the SMILES beside them. Chains are numbered I, II in the order given. ξ: configuration not given here. Actinocin(1to9) = Cc1c2oc3c(C)ccc(C(=O)[*:2])c3nc-2c(C(=O)[*:1])c(N)c1=O; NMeV = CN[C@H](C(=O)O)C(C)C; ξP = O=C(O)C1CCCN1; Sar = CNCC(=O)O

How the values were obtained:
[1] = test system: 27 liver cancer PDO lines; test: High throughput screening of NCI VII 129-drug panel on 27 liver cancer PDO lines (CellTiter-Glo); format: cell-based, human; settings: for median survival across all 27 liver cancer PDO lines: 10 uM, percent viability 4 days after treatment
Text: To pick out inter patient divergent drugs (i.e., drugs with discordant effect across the 5 patients), we calculated the mean cell viability per patient cancer specimen by averaging the effect of the drugs across all PDO lines established for the same patient. This mean cell viability per patient is a measure of how the tumor, as a whole, responds to a certain drug. Next, we calculated the standard deviation of the 5 means (one per patient) and ordered the data in decreasing order of the standard deviation. […] To further visualize the inter-patient divergence of drug effects, the inventors constructed a heat map of drug responses per each patient (utilizing the mean cell viability over all clones from each patient, FIG. 20B).
This intra tumor functional heterogeneity was investigated by calculating the standard deviation of a drug response across all PDO lines established from a patient tumor. […] The inventors chose one of the cancer specimens (CCA8) for further in-depth studies of intra-tumor functional heterogeneity and the identification of its drivers. […] To visualize this phenomenon, we calculated the standard deviation of each drug effect across the 6 PDOs (FIG. 20D). […] To this end, we first chose drugs that induced 30% or less viability in at least one of the 6 sister CCA PDO lines when tested at a 10 uM concentration. […] Of note, there is no known genetic alteration (mutational or otherwise) to predict the response of human cancers to proteasome inhibitors.
Take out Matrigel from −20 C and keep at 4 C overnight. Also keep pipette tips at 4 C overnight. Count cells. Mix cells with Matrigel so that you have 200 cells per uL of Matrigel. […] Plate 2 rows, then stop. Wait till the Matrigel is solid. Then add 100 uL of growth passage media. […]
PDOs were plated in 96-well or 384-well plates and cultured for 3 days. […] After 4 days, viability was determined in each well with Cell TiterGlo (Cat #: G7572, Promega, Wis.) following the manufacturer's instruction. […] was measured with a plate reader (Perkin-Elmer EnVision Plate Reader). […]

[2] = test system: CCA PDOs with FGFR1 mutations; test: Ponatinib testing and IC50 on CCA PDOs with FGFR1 mutations; format: cell-based, human
Protocol: In preliminary studies, the inventors have obtained resection cancer tissue from 10 CCA patients. […] Pilots experiments were performed with a 9-drug library, at a standard HT screening drug concentration of 10 uM. For positive control, the inventors used 10% Triton X, while for negative control the inventors used DMSO at same concentration used to dissolve drugs. […] As proof of concept, the inventors then expanded to the 1,600 drug JHCCL Hopkins library (data not shown). […] This scale-up required a reproducible and accurate read out. We chose CellTiter-Glo (Promega), an ATP-based cytotoxicity assay that quantifies metabolically active cells. […] Next, the inventors sought to determine IC50s. […] Next, the inventors performed whole exome sequencing on a subset of these CCA PDOs. […] The inventors next performed pilot trials with high-content imaging. We utilized DRAQ5 (red) to stain nuclei and YOYO-1 (green in FIG. 9) to stain dead cells. In this experiment, we treated a CCA PDO culture with Gemcitabine, at concentrations from 10 to 0.1 uM. […] FIG. 10 is a representative 100× Hematoxylin and Eosin image of a PDX tumor.
PDOs were plated in 96-well or 384-well plates and cultured for 3 days. Next, media was changed with drug-containing media. The initial screen was performed at a concentration of 10 uM. […] Fluorescent intensity was measured with a plate reader (Perkin-Elmer EnVision Plate Reader). […]

| Structure (SMILES) | median survival across all 27 liver cancer PDO lines [1] | number of PDO lines where ineffective ([1]; of 27 liver cancer PDO lines) | activity in CCA PDOs with FGFR1 mutations ([2]; 10 uM, both CCA PDOs (7 and 11)) | inhibition of FGFR1 mutated PDOs, dependence on concentration ([2]; FIG. 8) |
| --- | --- | --- | --- | --- |
| Cc1c2oc3c(C)ccc(C(=O)N[C@@H]4C(=O)N[C@H](C(C)C)C(=O)N5CCC[C@H]5C(=O)N(C)CC(=O)N(C)[C@@H](C(C)C)C(=O)O[C@@H]4C)c3nc-2c(C(=O)N[C@@H]2C(=O)N[C@H](C(C)C)C(=O)N3CCC[C@H]3C(=O)N(C)CC(=O)N(C)[C@@H](C(C)C)C(=O)O[C@@H]2C)c(N)c1=O [Dactinomycin, dactinomycin] (I: T[dV]P[Sar][NMeV] / II: T[dV][ξP][Sar][NMeV]; ester I:1-I:C, II:1-II:C; linker I:N-II:N via Actinocin(1to9)) | less than 10% | at least 1 | – | – |
| COC(=O)C[C@](O)(CCCC(C)(C)O)C(=O)O[C@@H]1C(OC)=C[C@]23CCCN2CCc2cc4c(cc2[C@H]13)OCO4 [Omacetaxine, omacetaxine] | less than 10% | – | – | – |
| Cc1ccc(C(=O)Nc2ccc(CN3CCN(C)CC3)c(C(F)(F)F)c2)cc1C#Cc1cnc2cccnn12 [Ponatinib] | – | – | demonstrated activity | inhibits FGFR1 mutated PDOs only at high concentrations |
